Data on 1 sequence can be found in publication PMC5101909.

For at least one entry, the source does not settle the construct or the ends of the probe.

The subject of the data set is thrombin. Briefly: gel, thrombin-induced release of labelled coDNA. The following applies: 5'-acrydite of aptaDNA copolymerized with MPC; Nanogels generated in PBS.

In the case of “TTTTTTTGCTCCGGTTGGTGTGGTTGG / TTTTTTTTTTTTCCAACCGGAGC [P(MPC/aptaDNA)/fluorescent coDNA duplex]”, the binding result is “binds”.
